{
  "source": "the supplement of paper PMC8728848",
  "binders": {"B1": {"name": "OS9 (Arabidopsis thaliana) (protein)", "chain": "MRGSHHHHHHGMASMTGGQQMGRDLYDDDDKSRLQIFPAHLVGTFSRNNREPKYKIEFLPEDSPFHPGDNLESMVMLDKHGNRFLCYLPKEEKATSGWTSSQQNISTVMMETQQLVKLKTPDELLQPLSEKCLFRQEGWWSYEFCHQKYVRQLHVEDENKIVQEFFLGTFDPEATAAFNQTVSDASTDASQRYHSHVYTNGTTCDLTGSPAEVEVRFVCAETRAMVTSITELSTCKYALTVQCPTLCKHPLFQLEKPVSHTIHCNAIPVEEDATRNKEEQAVDESPKMIADS"}},
  "test_in_all_cases": "glycan array binding signal (z-score within array); higher = stronger binding",
  "conditions_in_all_cases": "glycan notation: IUPAC condensed, linker removed; mutation: R201A",
  "key": {"[1]": {"molecular_target": "Gal(b1-4)GlcNAc(b1-2)Man(a1-6)[GlcNAc(b1-2)Man(a1-3)]Man(b1-4)GlcNAc(b1-4)GlcNAc", "summary_of_the_method": "(§1)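 Glycan array data came from 3228 arrays in the Consortium for Functional Glycomics database, and only arrays with an available protein sequence were kept. Glycan names were put into IUPAC-condensed notation, and columns mapping to the same glycan were averaged. The binding signal is a within-array Z-score, averaged across arrays of one protein sequence run at different concentrations or buffers and across linkers. A negative Z-score can be read as non-binding.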"}, "[2]": {"molecular_target": "Gal(b1-4)GlcNAc(b1-2)Man(a1-6)[Man(a1-3)]Man(b1-4)GlcNAc(b1-4)GlcNAc", "summary_of_the_method": "as §1"}, "[3]": {"molecular_target": "Gal(b1-4)GlcNAc(b1-2)[Gal(b1-4)GlcNAc(b1-4)]Man(a1-3)[Gal(b1-4)GlcNAc(b1-2)Man(a1-6)]Man(b1-4)GlcNAc(b1-4)GlcNAc", "summary_of_the_method": "as §1"}, "[4]": {"molecular_target": "Gal(b1-4)GlcNAc(b1-2)[Gal(b1-4)GlcNAc(b1-4)]Man(a1-3)[Gal(b1-4)GlcNAc(b1-2)[Gal(b1-4)GlcNAc(b1-6)]Man(a1-6)]Man(b1-4)GlcNAc(b1-4)GlcNAc", "summary_of_the_method": "as §1"}, "[5]": {"molecular_target": "Gal(b1-4)GlcNAc(b1-2)[Gal(b1-4)GlcNAc(b1-4)]Man(a1-3)[GlcNAc(b1-4)][Gal(b1-4)GlcNAc(b1-2)Man(a1-6)]Man(b1-4)GlcNAc(b1-4)GlcNAc", "summary_of_the_method": "as §1"}, "[6]": {"molecular_target": "Gal(b1-4)GlcNAc(b1-2)[Gal(b1-4)GlcNAc(b1-4)]Man(a1-3)[GlcNAc(b1-4)][Gal(b1-4)GlcNAc(b1-2)[Gal(b1-4)GlcNAc(b1-6)]Man(a1-6)]Man(b1-4)GlcNAc(b1-4)GlcNAc", "summary_of_the_method": "as §1"}, "[7]": {"molecular_target": "Gal(b1-4)GlcNAc(b1-2)[Gal(b1-4)GlcNAc(b1-6)]Man(a1-6)[Gal(b1-4)GlcNAc(b1-2)Man(a1-3)]Man(b1-4)GlcNAc(b1-4)GlcNAc", "summary_of_the_method": "as §1"}, "[8]": {"molecular_target": "Gal(b1-4)GlcNAc(b1-2)[Gal(b1-4)GlcNAc(b1-6)]Man(a1-6)[Gal(b1-4)GlcNAc(b1-2)Man(a1-3)]Man(b1-4)GlcNAc(b1-4)[Fuc(a1-6)]GlcNAc", "summary_of_the_method": "as §1"}, "[9]": {"molecular_target": "Gal(b1-4)GlcNAc(b1-2)[Gal(b1-4)GlcNAc(b1-6)]Man(a1-6)[GlcNAc(b1-4)][Gal(b1-4)GlcNAc(b1-2)Man(a1-3)]Man(b1-4)GlcNAc(b1-4)GlcNAc", "summary_of_the_method": "as §1"}, "[10]": {"molecular_target": "Gal(b1-4)GlcNAc(b1-2)[Gal(b1-4)GlcNAc(b1-6)]Man(a1-6)[GlcNAc(b1-4)][Gal(b1-4)GlcNAc(b1-2)[Gal(b1-4)GlcNAc(b1-4)]Man(a1-3)]Man(b1-4)GlcNAc(b1-4)[Fuc(a1-6)]GlcNAc", "summary_of_the_method": "as §1"}, "[11]": {"molecular_target": "Gal(b1-4)GlcNAc(b1-3)Gal(b1-3)GalNAc", "summary_of_the_method": "as §1"}, "[12]": {"molecular_target": "Gal(b1-4)GlcNAc(b1-3)Gal(b1-3)GlcNAc", "summary_of_the_method": "as §1"}, "[13]": {"molecular_target": "Gal(b1-4)GlcNAc(b1-3)Gal(b1-4)Glc", "summary_of_the_method": "as §1"}, "[14]": {"molecular_target": "Gal(b1-4)GlcNAc(b1-3)Gal(b1-4)GlcNAc", "summary_of_the_method": "as §1"}, "[15]": {"molecular_target": "Gal(b1-4)GlcNAc(b1-3)Gal(b1-4)GlcNAc(b1-2)Man(a1-3)[Gal(b1-4)GlcNAc(b1-3)Gal(b1-4)GlcNAc(b1-2)Man(a1-6)]Man(b1-4)GlcNAc(b1-4)GlcNAc", "summary_of_the_method": "as §1"}, "[16]": {"molecular_target": "Gal(b1-4)GlcNAc(b1-3)Gal(b1-4)GlcNAc(b1-2)Man(a1-3)[Gal(b1-4)GlcNAc(b1-3)Gal(b1-4)GlcNAc(b1-2)Man(a1-6)]Man(b1-4)GlcNAc(b1-4)[Fuc(a1-6)]GlcNAc", "summary_of_the_method": "as §1"}, "[17]": {"molecular_target": "Gal(b1-4)GlcNAc(b1-3)Gal(b1-4)GlcNAc(b1-2)[Gal(b1-4)GlcNAc(b1-3)Gal(b1-4)GlcNAc(b1-6)]Man(a1-6)[Gal(b1-4)GlcNAc(b1-3)Gal(b1-4)GlcNAc(b1-2)Man(a1-3)]Man(b1-4)GlcNAc(b1-4)GlcNAc", "summary_of_the_method": "as §1"}, "[18]": {"molecular_target": "Gal(b1-4)GlcNAc(b1-3)Gal(b1-4)GlcNAc(b1-2)[Gal(b1-4)GlcNAc(b1-3)Gal(b1-4)GlcNAc(b1-6)]Man(a1-6)[Gal(b1-4)GlcNAc(b1-3)Gal(b1-4)GlcNAc(b1-2)Man(a1-3)]Man(b1-4)GlcNAc(b1-4)[Fuc(a1-6)]GlcNAc", "summary_of_the_method": "as §1"}},
  "note": "This is one part of the list.",
  "data": [
    {"binder": "B1", "values": [
      {"measurement": "glycan array binding signal (z-score)", "setting": "[1]", "value": -0.719},
      {"measurement": "glycan array binding signal (z-score)", "setting": "[2]", "value": 0.448},
      {"measurement": "glycan array binding signal (z-score)", "setting": "[3]", "value": -0.605},
      {"measurement": "glycan array binding signal (z-score)", "setting": "[4]", "value": -0.525},
      {"measurement": "glycan array binding signal (z-score)", "setting": "[5]", "value": -1.19},
      {"measurement": "glycan array binding signal (z-score)", "setting": "[6]", "value": 0.727},
      {"measurement": "glycan array binding signal (z-score)", "setting": "[7]", "value": -1.21},
      {"measurement": "glycan array binding signal (z-score)", "setting": "[8]", "value": -0.276},
      {"measurement": "glycan array binding signal (z-score)", "setting": "[9]", "value": 0.041},
      {"measurement": "glycan array binding signal (z-score)", "setting": "[10]", "value": 1.83},
      {"measurement": "glycan array binding signal (z-score)", "setting": "[11]", "value": -0.513},
      {"measurement": "glycan array binding signal (z-score)", "setting": "[12]", "value": 0.799},
      {"measurement": "glycan array binding signal (z-score)", "setting": "[13]", "value": -0.35},
      {"measurement": "glycan array binding signal (z-score)", "setting": "[14]", "value": 0.611},
      {"measurement": "glycan array binding signal (z-score)", "setting": "[15]", "value": 0.354},
      {"measurement": "glycan array binding signal (z-score)", "setting": "[16]", "value": 0.84},
      {"measurement": "glycan array binding signal (z-score)", "setting": "[17]", "value": 0.481},
      {"measurement": "glycan array binding signal (z-score)", "setting": "[18]", "value": -0.765}
    ]}
  ]
}
